Experimental data reported in patent US20240025959A1.

The chains behind the UniProt entries cited, without tags or fusion partners. Where a name states a change or a piece, a line headed by the entry shows the natural chain unless it says otherwise.
UniProt Q96P20: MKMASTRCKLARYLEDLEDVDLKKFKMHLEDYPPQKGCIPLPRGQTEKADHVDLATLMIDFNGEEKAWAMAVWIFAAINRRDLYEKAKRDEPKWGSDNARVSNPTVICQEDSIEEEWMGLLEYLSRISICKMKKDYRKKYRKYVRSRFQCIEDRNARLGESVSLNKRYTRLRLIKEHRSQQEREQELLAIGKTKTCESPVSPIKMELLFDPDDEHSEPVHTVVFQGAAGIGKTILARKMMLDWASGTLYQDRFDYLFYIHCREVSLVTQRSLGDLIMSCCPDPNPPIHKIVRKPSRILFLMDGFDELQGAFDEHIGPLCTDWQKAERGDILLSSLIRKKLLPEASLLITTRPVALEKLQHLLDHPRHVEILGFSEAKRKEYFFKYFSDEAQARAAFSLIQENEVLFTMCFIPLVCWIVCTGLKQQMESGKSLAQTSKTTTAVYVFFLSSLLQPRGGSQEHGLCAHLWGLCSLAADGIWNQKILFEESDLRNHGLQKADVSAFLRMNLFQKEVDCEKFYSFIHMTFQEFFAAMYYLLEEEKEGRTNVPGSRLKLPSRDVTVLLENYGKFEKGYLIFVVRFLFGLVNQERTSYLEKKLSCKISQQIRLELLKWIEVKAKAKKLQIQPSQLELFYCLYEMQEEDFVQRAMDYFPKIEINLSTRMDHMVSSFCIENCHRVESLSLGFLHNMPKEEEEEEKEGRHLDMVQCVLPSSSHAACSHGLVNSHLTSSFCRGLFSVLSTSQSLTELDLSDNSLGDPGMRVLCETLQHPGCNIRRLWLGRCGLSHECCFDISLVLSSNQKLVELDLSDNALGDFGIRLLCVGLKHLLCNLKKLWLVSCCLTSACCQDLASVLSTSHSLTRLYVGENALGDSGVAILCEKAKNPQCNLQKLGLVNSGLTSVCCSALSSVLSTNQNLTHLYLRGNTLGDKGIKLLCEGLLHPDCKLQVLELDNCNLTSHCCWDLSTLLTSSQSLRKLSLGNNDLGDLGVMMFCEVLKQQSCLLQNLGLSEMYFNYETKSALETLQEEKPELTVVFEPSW

Target: T1, Beclin 2 (human, full length) (human) (UniProt A8MW95)
T1 sequence: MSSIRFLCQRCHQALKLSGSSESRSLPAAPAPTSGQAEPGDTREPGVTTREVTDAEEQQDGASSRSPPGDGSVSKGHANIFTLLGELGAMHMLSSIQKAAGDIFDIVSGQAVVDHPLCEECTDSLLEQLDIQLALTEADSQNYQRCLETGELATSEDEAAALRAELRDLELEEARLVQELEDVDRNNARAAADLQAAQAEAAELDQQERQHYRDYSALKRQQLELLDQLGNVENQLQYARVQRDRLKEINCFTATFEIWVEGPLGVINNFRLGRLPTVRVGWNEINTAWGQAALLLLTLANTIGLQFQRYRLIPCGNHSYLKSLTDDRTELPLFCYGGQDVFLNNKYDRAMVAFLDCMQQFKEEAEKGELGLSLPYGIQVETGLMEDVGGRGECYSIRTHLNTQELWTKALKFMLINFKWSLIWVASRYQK
Assay: co-IP with anti-Flag beads; HEK293T cells co-transfected with Flag-Beclin 2 and HA-tagged NLRP3 domain truncations (FIG. 25G)

NLRP3-LRR (LRR domain of NLRP3, residues 560-894) (from UniProt Q96P20)
binding: binds

No constants are given. Whether binding was seen depends on the method and setting. Binding seen in cells or lysates may run through a third protein. Binding can be weak; no strength is given.
